# Values of other authors, collected in patent US20100273275A1, “Methods of determining levels of steroid fractions utilizing SHBG calculations” (priority 2005, published 2010).
# By UniProt entry, the sequences of proteins in these tests, tags left out. Residues count along the entry.
# UniProt P02768, 25-609: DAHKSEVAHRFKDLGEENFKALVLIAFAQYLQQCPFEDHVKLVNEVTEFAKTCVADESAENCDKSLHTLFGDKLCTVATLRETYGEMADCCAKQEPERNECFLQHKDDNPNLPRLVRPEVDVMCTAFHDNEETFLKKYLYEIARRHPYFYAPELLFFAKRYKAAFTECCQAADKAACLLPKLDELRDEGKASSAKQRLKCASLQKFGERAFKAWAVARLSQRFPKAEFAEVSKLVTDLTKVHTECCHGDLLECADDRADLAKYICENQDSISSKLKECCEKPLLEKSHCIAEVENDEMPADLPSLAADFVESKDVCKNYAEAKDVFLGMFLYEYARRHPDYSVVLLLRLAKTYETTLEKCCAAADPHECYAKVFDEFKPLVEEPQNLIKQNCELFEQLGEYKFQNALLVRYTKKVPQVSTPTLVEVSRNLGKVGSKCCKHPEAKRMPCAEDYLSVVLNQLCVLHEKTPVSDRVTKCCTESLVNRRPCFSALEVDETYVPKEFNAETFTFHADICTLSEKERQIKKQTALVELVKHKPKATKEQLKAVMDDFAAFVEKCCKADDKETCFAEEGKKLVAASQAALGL
# For some assays here: At least one structure is not confirmed: it was looked up by name or label, or the drawing left a doubt. Some entries share one result that the patent states for a list of compounds.
# Legend:
# plasma proteins = settings: bound to SHBG and albumin; background statement
# albumin = albumin (Homo sapiens, UniProt P02768); settings: constants used for calculations; Dunn et al. (1981), Moll et al. (1981), Rosner (1991)
# SHBG = target: T1, SHBG (Homo sapiens, UniProt P04278); settings: constants used for calculations; Dunn et al. (1981), Moll et al. (1981), Rosner (1991)
# T1 sequence (P04278 30-402): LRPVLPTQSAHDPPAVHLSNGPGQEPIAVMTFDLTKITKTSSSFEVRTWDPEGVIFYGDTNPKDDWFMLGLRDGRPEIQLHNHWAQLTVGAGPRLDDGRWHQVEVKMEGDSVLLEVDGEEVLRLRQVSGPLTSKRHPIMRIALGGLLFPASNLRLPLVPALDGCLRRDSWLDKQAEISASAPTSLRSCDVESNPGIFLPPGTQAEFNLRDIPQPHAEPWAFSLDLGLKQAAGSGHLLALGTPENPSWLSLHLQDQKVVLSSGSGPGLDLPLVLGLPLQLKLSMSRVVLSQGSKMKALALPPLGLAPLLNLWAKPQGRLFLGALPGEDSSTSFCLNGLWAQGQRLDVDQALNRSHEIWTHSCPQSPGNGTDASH
Structure (SMILES),circulating steroid bound to plasma proteins (plasma proteins),KAS (association constant for albumin-binding to a steroid ligand) (albumin),KPS (association constant for SHBG-binding to a steroid ligand) (SHBG)
C[C@]12CC[C@@H]3c4ccc(O)cc4CC[C@H]3[C@@H]1CC[C@@H]2O [Estradiol],Greater than 97%,60000 [M^−1],
C[C@]12CC[C@@H]3c4ccc(O)cc4CC[C@H]3[C@@H]1CCC2=O [Estrone],Greater than 97%,40000 [M^−1],0.15 [M^−1] × 10^9
